Experimental data: publication PMC12395558
Results are given in words; binding and its absence hold for the method and conditions named. In cells and extracts the contact can be indirect. Some entries that bind do so weakly or less than the wild type. For some assays here: Where a sequence is shown, tags or fusion partners need not be part of it.

Chains of the proteins cited; added tags and fusions are not shown.
UniProt Q09472: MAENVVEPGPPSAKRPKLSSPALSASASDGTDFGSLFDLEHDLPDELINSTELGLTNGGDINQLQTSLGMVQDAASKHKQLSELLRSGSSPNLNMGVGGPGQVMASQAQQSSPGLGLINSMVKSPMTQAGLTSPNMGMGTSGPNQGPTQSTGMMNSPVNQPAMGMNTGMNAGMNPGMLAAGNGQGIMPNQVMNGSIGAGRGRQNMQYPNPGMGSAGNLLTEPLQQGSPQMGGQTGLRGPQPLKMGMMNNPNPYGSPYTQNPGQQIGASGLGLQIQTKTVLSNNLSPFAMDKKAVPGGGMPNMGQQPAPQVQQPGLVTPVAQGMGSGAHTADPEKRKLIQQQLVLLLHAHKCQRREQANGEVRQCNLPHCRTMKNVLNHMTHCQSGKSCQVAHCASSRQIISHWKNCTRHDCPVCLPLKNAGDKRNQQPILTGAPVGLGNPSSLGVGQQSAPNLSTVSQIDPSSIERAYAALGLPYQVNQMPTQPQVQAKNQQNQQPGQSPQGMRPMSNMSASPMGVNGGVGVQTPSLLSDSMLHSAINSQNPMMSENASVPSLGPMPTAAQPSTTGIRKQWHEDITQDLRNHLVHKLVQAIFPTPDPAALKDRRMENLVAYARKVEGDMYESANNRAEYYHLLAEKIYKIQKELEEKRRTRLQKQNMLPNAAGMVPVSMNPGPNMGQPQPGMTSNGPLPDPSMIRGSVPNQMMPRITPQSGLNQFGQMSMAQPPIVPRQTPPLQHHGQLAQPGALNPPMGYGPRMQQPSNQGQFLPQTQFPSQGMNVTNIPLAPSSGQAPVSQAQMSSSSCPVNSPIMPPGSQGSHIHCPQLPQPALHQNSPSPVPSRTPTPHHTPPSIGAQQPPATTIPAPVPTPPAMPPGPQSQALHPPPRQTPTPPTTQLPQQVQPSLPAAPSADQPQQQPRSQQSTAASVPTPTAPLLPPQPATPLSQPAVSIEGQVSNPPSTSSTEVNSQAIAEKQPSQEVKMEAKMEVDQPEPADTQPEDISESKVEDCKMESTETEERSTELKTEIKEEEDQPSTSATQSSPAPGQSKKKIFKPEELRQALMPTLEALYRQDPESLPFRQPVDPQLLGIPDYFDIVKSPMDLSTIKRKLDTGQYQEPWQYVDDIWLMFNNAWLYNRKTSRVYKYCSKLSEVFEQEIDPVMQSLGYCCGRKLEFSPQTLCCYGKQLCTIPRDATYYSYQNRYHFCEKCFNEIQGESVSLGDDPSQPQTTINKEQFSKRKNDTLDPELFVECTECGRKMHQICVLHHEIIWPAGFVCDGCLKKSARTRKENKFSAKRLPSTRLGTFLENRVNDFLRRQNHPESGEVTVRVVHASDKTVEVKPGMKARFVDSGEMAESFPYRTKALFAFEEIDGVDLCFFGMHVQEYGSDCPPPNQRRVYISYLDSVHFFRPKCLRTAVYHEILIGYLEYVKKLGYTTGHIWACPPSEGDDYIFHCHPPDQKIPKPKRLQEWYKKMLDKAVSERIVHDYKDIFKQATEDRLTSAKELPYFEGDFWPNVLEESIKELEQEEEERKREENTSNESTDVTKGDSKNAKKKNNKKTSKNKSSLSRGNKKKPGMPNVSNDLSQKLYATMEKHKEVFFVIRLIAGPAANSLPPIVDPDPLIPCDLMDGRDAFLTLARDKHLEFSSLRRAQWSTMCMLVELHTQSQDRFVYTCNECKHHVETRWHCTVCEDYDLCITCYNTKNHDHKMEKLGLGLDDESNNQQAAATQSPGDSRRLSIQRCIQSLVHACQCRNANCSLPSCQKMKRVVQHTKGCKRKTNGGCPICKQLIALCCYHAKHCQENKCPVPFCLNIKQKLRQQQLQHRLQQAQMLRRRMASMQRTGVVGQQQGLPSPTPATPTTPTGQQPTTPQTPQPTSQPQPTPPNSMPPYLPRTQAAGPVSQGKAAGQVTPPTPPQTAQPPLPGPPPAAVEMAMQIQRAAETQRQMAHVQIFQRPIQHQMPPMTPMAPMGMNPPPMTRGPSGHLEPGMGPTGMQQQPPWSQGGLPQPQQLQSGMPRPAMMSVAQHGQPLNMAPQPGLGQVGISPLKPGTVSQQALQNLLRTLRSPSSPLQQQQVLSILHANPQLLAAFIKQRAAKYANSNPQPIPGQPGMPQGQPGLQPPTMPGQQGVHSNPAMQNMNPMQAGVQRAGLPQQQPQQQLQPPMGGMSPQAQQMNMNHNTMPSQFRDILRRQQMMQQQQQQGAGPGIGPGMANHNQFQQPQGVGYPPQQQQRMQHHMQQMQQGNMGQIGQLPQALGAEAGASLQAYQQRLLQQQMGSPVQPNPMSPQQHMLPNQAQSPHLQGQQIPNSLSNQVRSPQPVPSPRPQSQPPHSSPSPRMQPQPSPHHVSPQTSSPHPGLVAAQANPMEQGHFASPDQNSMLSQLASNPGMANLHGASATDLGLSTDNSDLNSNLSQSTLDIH
UniProt Q13547: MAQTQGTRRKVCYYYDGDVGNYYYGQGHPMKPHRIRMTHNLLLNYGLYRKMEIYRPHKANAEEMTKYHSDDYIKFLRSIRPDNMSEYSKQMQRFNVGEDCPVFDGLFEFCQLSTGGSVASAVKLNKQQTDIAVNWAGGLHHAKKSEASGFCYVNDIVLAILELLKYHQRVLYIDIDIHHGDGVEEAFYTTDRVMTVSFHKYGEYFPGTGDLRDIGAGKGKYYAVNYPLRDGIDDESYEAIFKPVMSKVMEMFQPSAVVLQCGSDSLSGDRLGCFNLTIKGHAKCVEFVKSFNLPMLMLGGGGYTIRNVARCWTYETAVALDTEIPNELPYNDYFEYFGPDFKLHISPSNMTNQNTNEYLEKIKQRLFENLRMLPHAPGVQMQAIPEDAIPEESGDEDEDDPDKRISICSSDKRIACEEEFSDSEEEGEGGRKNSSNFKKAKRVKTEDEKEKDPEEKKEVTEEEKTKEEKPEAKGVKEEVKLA

What was measured:
[1] = target: T1, Endogenous GCDH of Huh7 cells (human (endogenous in Huh7)) (UniProt Q92947); assay: co-IP; Huh7 cells transfected with V5-HDAC1, endogenous GCDH; antibodies overnight at 4 °C, protein A/G agarose beads, Western blot
T1 sequence: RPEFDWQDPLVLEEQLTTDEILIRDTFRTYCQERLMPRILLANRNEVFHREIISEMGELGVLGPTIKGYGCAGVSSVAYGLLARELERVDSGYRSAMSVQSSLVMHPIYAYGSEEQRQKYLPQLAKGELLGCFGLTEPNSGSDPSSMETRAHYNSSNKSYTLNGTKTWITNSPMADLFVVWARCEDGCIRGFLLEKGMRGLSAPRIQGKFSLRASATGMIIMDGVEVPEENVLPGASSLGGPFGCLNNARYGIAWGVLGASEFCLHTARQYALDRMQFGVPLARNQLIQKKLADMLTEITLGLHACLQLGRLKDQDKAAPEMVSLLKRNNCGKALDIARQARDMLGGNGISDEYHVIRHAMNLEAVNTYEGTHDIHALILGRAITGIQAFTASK

[2] = target: T2, V5-GCDH (glutaryl-CoA dehydrogenase), expressed in HEK293T cells (UniProt Q92947); assay: co-IP; HEK293T cells cotransfected with the tagged proteins; lysates with specific antibodies overnight at 4 °C, protein A/G agarose beads, washed 3 times with lysis buffer, Western blot
T2 sequence: T1 sequence

[3] = target: Flag-P300, expressed in HEK293T cells (UniProt Q09472); assay: as above
[4] = target: Endogenous P300 of MHCC-97H cells (human (endogenous in MHCC-97H)) (UniProt Q09472); assay: co-IP; MHCC-97H cell lysate, endogenous proteins by the text; antibodies overnight at 4 °C, protein A/G agarose beads, Western blot
GST-HDAC1 fusion protein = GST-HDAC1 fusion protein (UniProt Q13547); assay: pull-down; GST fusion protein coupled to Glutathione-Sepharose 4B beads, incubated with GCDH overexpression MHCC-97H whole-cell lysates for 2 h at 4 °C, washed 3 times, Western blot; only the target purified

## V5-HDAC1, expressed in Huh7 cells (from UniProt Q13547 1-482)
[1]
  binding: binds

## V5-HDAC1, expressed in HEK293T cells (from UniProt Q13547 1-482)
[2]
  binding: binds

B1: V5-GCDH (glutaryl-CoA dehydrogenase), expressed in HEK293T cells (protein, UniProt Q92947 45-438)
chain: T1 sequence
[3]
  binding: binds

B2: Endogenous GCDH of MHCC-97H cells (protein, UniProt Q92947 45-438)
chain: T1 sequence
[4]
  binding: binds

B3: GCDH overexpressed in MHCC-97H cells (protein, UniProt Q92947 45-438)
chain: T1 sequence
GST-HDAC1 fusion protein
  binding: binds
